Values of other authors, collected in patent US5206415A, “Tricyclic steroid analogs” (priority 1991, dated 1993).

Test system: GABAA receptors
Details: cited from earlier work

CC(=O)[C@H]1CC[C@H]2[C@@H]3CC[C@H]4C[C@H](O)CC[C@]4(C)[C@H]3C(=O)C[C@]12C [alphaxalone]
direct opening of Cl^- channels in the absence of GABA: open Cl^- channels directly in the absence of GABA
